Measured values published in PubChem BioAssay AID504834 (National Center for Advancing Translational Sciences (NCATS), 2011).
Hit rate of the full screen: of about 320,000 compounds, about 22,000 (6.9%) were called active. Inconclusive means that the source gave no clear call. Such entries were picked first, then a sample of the others. The call rests on the fitted dose curve; in most records, active means well fitted inhibition curve with a large enough effect; inconclusive means small, poorly fitted or top-dose-only effect, or another doubt; inactive means no such curve, though single readings can be large or run the other way. Potencies of inconclusive entries are doubtful fits and often do not repeat.

assay: Primary qHTS for delayed death inhibitors of the malarial parasite plastid, 96 hour incubation; settings: P. falciparum luciferase reporter growth; series mostly up to 28.7 µM
Outline: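 Compounds incubated with erythrocytes infected by luciferase-expressing P. falciparum (2% hematocrit, 0.05% parasitemia final) for 96 hours, 37 C in 5% CO2. Growth inhibition scored as decreased luciferase luminescence.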
Potency means the concentration at half of the fitted maximal effect.

| SMILES | Potency |
| --- | --- |
| CCc1nc(N2CCN(C(=O)c3ccccc3)CC2)c2c3c(sc2n1)CCCC3 | inactive |
| N#Cc1ccc(CSc2nnc(-c3cccc(S(=O)(=O)N4CCCCC4)c3)o2)cc1 | inconclusive: 18.5 µM [inhibitor, single point] |
| Cc1ccc(C)c(NC(=S)N2CCCCCC2)c1 | inconclusive: 11.7 µM [inhibitor, single point] |
| Cc1cc(N2CCC(C(N)=O)CC2)nc(-c2ccccc2)n1 | active: 0.738 µM |
| CC1CC(C)CN(C(=O)C2CCN(S(=O)(=O)N3CCC4(CC3)OCCO4)CC2)C1 (stereo not given) | inconclusive: 3.7 µM [inhibitor, partial curve, poor fit] |
| O=C(Cc1cccc2ccccc12)Nc1ccc(-c2cc3ccccc3oc2=O)cc1 | inconclusive: 18.5 µM [inhibitor, single point] |
| Cc1cccc(C2=NC(C(F)(F)F)(C(F)(F)F)c3c(n(-c4ccc(F)cc4)c(=O)[nH]c3=O)N2)c1 | active: 11.7 µM |
| CCOc1ccccc1Nc1cc(C)nc2nc(C)nn12 | inactive |
| CC(=O)Nc1cccc(OCC(=O)Nc2cccc(S(=O)(=O)N3CCCC3)c2)c1 | inconclusive: 11.7 µM [inhibitor, partial curve] |
| CCOC(=O)C1=C(COc2ccccc2)NC(=O)NC1c1cccc([N+](=O)[O-])c1 (stereo not given) | inconclusive: 18.5 µM [inhibitor, single point] |
| C=CCn1c(-c2ccc(Cl)cc2)cnc1SC(C)C(=O)NC(N)=O (stereo not given) | inconclusive: 13.1 µM [inhibitor, single point] |
| Cc1ccnc(NC(=O)CSc2ccccn2)c1 | inactive |
| CC(OC(=O)c1ccccc1NCCO)C(=O)NC1CCCCC1C (stereo not given) | inactive |
| CN1CCC(N(C)CC(O)c2ccccc2)CC1 (stereo not given) | inactive |
| Cc1ccc(CNC(=O)COc2ccc(C(=O)c3ccc(F)cc3)cc2)cc1 | inconclusive: 4.15 µM [inhibitor, partial curve] |
| COc1ccccc1CNS(=O)(=O)CC12CCC(CC1=O)C2(C)C (stereo not given) | inactive |
| COc1ccccc1CNC(=O)CCS(=O)(=O)c1ccc2c(c1)CCN2C(C)=O | inconclusive: 13.1 µM [inhibitor, partial curve, poor fit] |
| Cc1cccc(NC(=O)N2C3CCCC2CC(NC(=O)C(C)(C)C)C3)c1 (stereo not given) | inconclusive: 11.7 µM [inhibitor, single point] |
| COc1ccc(OCC(O)CNS(=O)(=O)c2cccc(Cl)c2)cc1 (stereo not given) | inconclusive: 14.7 µM [inhibitor, single point] |
| NC(=O)c1c(NC(=O)CN2C(=O)NC(Cc3ccccc3)C2=O)sc2c1CCC2 (stereo not given) | inconclusive: 0.415 µM [inhibitor, full curve, poor fit] |
| Cc1cc(C)c(C(=O)N2CCCC(N3CCN(c4cccc(C(F)(F)F)c4)CC3)C2)o1 (stereo not given) | inconclusive: 18.5 µM [inhibitor, single point] |
| O=C(COc1ccc(S(=O)(=O)NCCc2ccccc2)cc1)N1CCCC1 | inconclusive: 11.7 µM [inhibitor, single point] |
| Cc1cccc2c1N(C(=O)c1ccco1)C(C)(C)c1ssc(=S)c1-2 | active: 5.22 µM |
| COc1ccc2cc3c(N)nn(C(=O)c4ccccc4[N+](=O)[O-])c3nc2c1 | inactive |

| SMILES | Potency |
| --- | --- |
| CCn1c(CNC(=O)C23CC4CC(CC(C4)C2)C3)nnc1SCC(=O)Nc1nnc(C)s1 | active: 7.38 µM |
| CSc1nnc(COc2ccc(C)cc2)n1N | inactive |
| Cc1ccc2c(c1)c1c(n2CC(O)Cn2c(C)nc3ccccc32)/C(=N\O)CCC1 (stereo not given) | inconclusive: 11.7 µM [inhibitor, single point] |
| O=C(c1ccc2nccnc2c1)N1CCCC(N2CCN(c3ccc(F)cc3)CC2)C1 (stereo not given) | inconclusive: 20.8 µM [inhibitor, single point] |
| Cc1ccccc1C(=O)N1CCC(C(=O)Nc2cccc(S(=O)(=O)N3CCCCC3)c2)CC1 | inconclusive: 18.5 µM [inhibitor, single point] |
| Cc1ccc(CNC(=O)c2ccc3c(=O)n(CCCN4CCCC4=O)c(=S)[nH]c3c2)cc1 | inactive |
| O=C(CSc1ccc(Cl)cc1)Nc1ccc(NC(=O)c2ccco2)cc1 | inactive |
| COc1ccc(C(=O)N/C(=C/c2ccc(Cl)cc2)C(=O)NCc2ccncc2)cc1 | inconclusive: 2.62 µM [inhibitor, full curve, poor fit] |
| O=C1Nc2cc(C(=O)N3CCOCC3)ccc2SC1N1CCOCC1 (stereo not given) | inconclusive: 9.28 µM [inhibitor, single point] |
| Cc1nn(-c2ccccc2)c(C)c1NC(=O)COC(=O)c1ccc(O)cc1O | inconclusive: 14.7 µM [inhibitor, partial curve] |
| CCS(=O)(=O)NCCc1cc2c(OC)ccc(OC)c2[nH]c1=O | active: 2.08 µM |
| COc1cc(N)c(Br)cc1C(=O)O | inconclusive: 10.4 µM [inhibitor, single point] |
| CC1CCN(S(=O)(=O)c2cccc(C(=O)N3CCN(c4ccc(F)cc4)CC3)c2)CC1 | inconclusive: 11.7 µM [inhibitor, single point] |
| CC(=O)Nc1ccc(-c2nc3c(C)cccc3[nH]2)cc1 | inactive |
| NC(=O)c1oc2ccccc2c1NC(=O)CS(=O)(=O)c1ccccc1 | inactive |
| CC(NC(=O)CC1Sc2ccccc2NC1=O)c1ccccc1 (stereo not given) | inconclusive: 10.4 µM [inhibitor, single point] |
| Cc1cc(C)c(C(=O)c2ccc(C(=O)NC(C)(C)C)cc2)c(C)c1 | active: 3.29 µM |
| CCOC(=O)N1CCN(C(=O)c2cc(COc3ccc(Cl)cc3OC)on2)CC1 | inconclusive: 0.294 µM [inhibitor, full curve, poor fit] |
| CCOC(=O)C1(Cc2ccc(Cl)cc2)CCN(C(=O)c2cscn2)CC1 | inconclusive: 13.1 µM [inhibitor, partial curve, poor fit] |
| CC1CC(C)CN(C(=O)COC(=O)c2cc(S(=O)(=O)N3CCOCC3)ccc2F)C1 (stereo not given) | inactive |
| COc1cccc(CN(C)C(=O)c2cc(-c3ccc(F)cc3)nc3ccccc23)c1 | active: 13.1 µM |
| O=C1CC(/C=C/c2ccncc2)=Nc2ccccc2N1 | inconclusive: 18.5 µM [inhibitor, single point] |
| C[C@@]12C(=O)N(CC3CC3)CC(=O)N1[C@H](/C=C/c1ccccc1)[C@@H]1C(=O)N(c3ccccc3)C(=O)[C@@H]12 | inactive |
| Cc1ccc(NC(=S)N(Cc2cccs2)Cc2cc3cccc(C)c3[nH]c2=O)cc1 | active: 7.38 µM |

| SMILES | Potency |
| --- | --- |
| CCCCCN=C(C)c1c(O)c2ccccc2oc1=O | inconclusive: 10.4 µM [inhibitor, single point] |
| COc1ccc(NC(=O)CSc2ccc3nnc(-c4ccccn4)n3n2)c(OC)c1 | inconclusive: 10.4 µM [inhibitor, partial curve] |
| O=C(NNC(=O)c1ccccc1O)c1ccc(Cl)c(S(=O)(=O)N2CCCCC2)c1 | inactive |
| CCCN(C(=O)CSCc1ccccc1C)c1c(N)n(Cc2ccccc2)c(=O)[nH]c1=O | inactive |
| CCOc1ccc(S(=O)(=O)NCCC(=O)NCc2ccc(OC)c(OC)c2)cc1 | inactive |
| Cc1ccc(OCc2n[nH]c(=S)n2-c2ccc(C)cc2)cc1 | inconclusive: 1.17 µM [inhibitor, partial curve, poor fit] |
| c1ccc(CCc2nn3c(Cc4ccccc4)nnc3s2)cc1 | inactive |
| CC(=O)c1cccc(S(=O)(=O)NCCC(=O)NC2CCCCCC2)c1 | inactive |
| O=[N+]([O-])c1ccc2[nH]c(O)c(N=NC3CS(=O)(=O)CC3O)c2c1 (stereo not given) | inactive |
| O=C(Nc1cccc(S(=O)(=O)N2CCCCC2)c1)c1ccc(S(=O)(=O)C(F)F)cc1 | inconclusive: 8.28 µM [inhibitor, partial curve, poor fit] |
| OCC[C@H]1C[C@H](O)[C@@H](O)[C@@]2(Cc3ccccc3O2)O1 | inconclusive: 18.5 µM [inhibitor, partial curve, poor fit] |
| C/C(N)=C(/C#N)C(=O)CSc1nc2scc(-c3ccccc3)c2c(=O)n1C | inconclusive: 1.31 µM [inhibitor, full curve, poor fit] |
| O=C1NC(=O)/C(=C\c2ccsc2)N1 | inconclusive: 18.5 µM [inhibitor, single point] |
| Cc1ccccc1NS(=O)(=O)c1csc(C(N)=O)c1 | inactive |
| Cc1nn(Cc2ccccc2)c2ncccc12 | inconclusive: 18.5 µM [inhibitor, single point] |
| CC(=O)Oc1c(C)c2c3c(c1OC(C)=O)[C@@H](C)CC[C@@H]3[C@@H](C)C[C@H]2C=C(C)C | inconclusive: 8.28 µM [inhibitor, single point] |
| CCn1cc(C(=O)Nc2ccc(NC(=O)c3ccco3)cc2)c(=O)c2ccc(C)nc21 | active: 6.57 µM |
| NC(=O)[C@@H]1CC2(CC(c3cccc(NC(=O)CC(c4ccccc4)c4ccccc4)c3)=NO2)CN1C(=O)[C@@H]1CCC(=O)N1 (stereo not given in full) | inconclusive: 18.5 µM [inhibitor, single point] |
| CC(C)Oc1ccc(C2C(C#N)=C(N)Oc3c2oc(CO)cc3=O)cc1 (stereo not given) | inconclusive: 1.17 µM [inhibitor, single point] |
| CN1CCN(CC#CCC(O)(c2ccccc2)C2CCCC2)CC1 (stereo not given) | inactive |
| CCOCc1nnc(NC(=O)C2CC(=O)N(C3CCCC3)C2)s1 (stereo not given) | inconclusive: 18.5 µM [inhibitor, single point] |
| Cc1ccccc1N1CCN(S(=O)(=O)c2nnc(NC(=O)c3ccco3)s2)CC1 | inconclusive: 11.7 µM [inhibitor, single point] |

Random excerpt: 4 entries already listed

| SMILES | Potency |
| --- | --- |
| Cc1ccc(OCc2n[nH]c(=S)n2-c2ccc(C)cc2)cc1 | inconclusive: 1.17 µM [inhibitor, partial curve, poor fit] |
| CC(=O)Oc1c(C)c2c3c(c1OC(C)=O)[C@@H](C)CC[C@@H]3[C@@H](C)C[C@H]2C=C(C)C | inconclusive: 8.28 µM [inhibitor, single point] |
| C/C(N)=C(/C#N)C(=O)CSc1nc2scc(-c3ccccc3)c2c(=O)n1C | inconclusive: 1.31 µM [inhibitor, full curve, poor fit] |
| NC(=O)[C@@H]1CC2(CC(c3cccc(NC(=O)CC(c4ccccc4)c4ccccc4)c3)=NO2)CN1C(=O)[C@@H]1CCC(=O)N1 (stereo not given in full) | inconclusive: 18.5 µM [inhibitor, single point] |
